Paper PMC11643483, “Chip-Scale Aptamer Sandwich Assay Using Optical Waveguide-Assisted Surface-Enhanced Raman Spectroscopy”
The exact form of at least one protein or probe is not confirmed.

Biological target: cardiac troponin I (cTnI) (UniProt P19429)
Assay: SERS aptamer sandwich assay on waveguide
Details: 1 ng/mL cTnI stock (25 uL mixed with 50 uL reporter NPs), sandwich with immobilized N1, no cTnI-free control described; 5'-thiol-spacer 18; printed strand starts with TTTTT; aptamer-AuNPs resuspended in PBS; cTnI incubated 30 min with reporter NPs, then 1 h on waveguide, rinsed with buffer; pH and temperature not stated; commercial protein; label: 36 nm AuNP with MGITC Raman reporter; single-stranded DNA

Q: Does “TTTTTCGCATGCCAAACGTTGCCTCATAGTTCCCTCCCCGTGTCC [secondary (reporter) aptamer]” bind?
A: binds
